The assay has as its target GST (control) (Schistosoma japonicum (Blood fluke), UniProt P08515 = GST). Briefly: GST pull-down from cerebellar lysates, Western blot with anti-CAPON. A general note: A western blot detects proteins with antibodies after separation by electrophoresis.

B1: rat brain CAPON (endogenous, cerebellar supernatant) (other)
chain: MPSKTKYNLVDDGHDLRIPLHNEDAFQHGISFEAKYVGSLDVPRPNSRVEIVAAMRRIRYEFKAKNIKKKKVSIMVSVDGVKVILKKKKKKKEWTWDESKMLVMQDPIYRIFYVSHDSQDLKIFSYIARDGASNIFRCNVFKSKKKSQAMRIVRTVGQAFEVCHKLSLQHTQQNADGQEDGESERNSDGSGDPGRQLTGAERVSTATAEETDIDAVEVPLPGNDILEFSRGVTDLDAIGKDGGSHIDTTVSPHPQEPMLAASPRMLLPSSSSSKPPGLGTGTPLSTHHQMQLLQQLLQQQQQQTQVAVAQVHLLKDQLAAEAAARLEAQARVHQLLLQNKDMLQHISLLVKQVQELELKLSGQSTMGSQDSLLEITFRSGALPVLCESTTPKPEDLHSPLLGAGLADFAHPVGSPLGRRDCLVKLECFRFLPAEDNQPMAQGEPLLGGLELIKFRESGIASEYESNTDESEERDSWSQEELPRLLNVLQRQELGDSLDDEIAV
In the case of B1, the binding result is reported as “no binding”.

The values are drawn from US6103872, “CAPON: a protein associated with neuronal nitric oxide synthase” (The Johns Hopkins University, dated 2000).
